From PubChem BioAssay AID540275 (National Center for Advancing Translational Sciences (NCATS), 2011)
Screen size: about 320,000 compounds; about 620 (0.19%) were called active. This list was built around the results that the source calls inconclusive (neither active nor inactive); the mix of calls is not that of the screen. Rule as the data show it: active = activation above about 80%; inconclusive = between about 30% and that limit; inactive = weaker than that.

Amino acid sequences for entries named in this document (tags omitted).
UniProt Q8NER1, whole entry, looked up: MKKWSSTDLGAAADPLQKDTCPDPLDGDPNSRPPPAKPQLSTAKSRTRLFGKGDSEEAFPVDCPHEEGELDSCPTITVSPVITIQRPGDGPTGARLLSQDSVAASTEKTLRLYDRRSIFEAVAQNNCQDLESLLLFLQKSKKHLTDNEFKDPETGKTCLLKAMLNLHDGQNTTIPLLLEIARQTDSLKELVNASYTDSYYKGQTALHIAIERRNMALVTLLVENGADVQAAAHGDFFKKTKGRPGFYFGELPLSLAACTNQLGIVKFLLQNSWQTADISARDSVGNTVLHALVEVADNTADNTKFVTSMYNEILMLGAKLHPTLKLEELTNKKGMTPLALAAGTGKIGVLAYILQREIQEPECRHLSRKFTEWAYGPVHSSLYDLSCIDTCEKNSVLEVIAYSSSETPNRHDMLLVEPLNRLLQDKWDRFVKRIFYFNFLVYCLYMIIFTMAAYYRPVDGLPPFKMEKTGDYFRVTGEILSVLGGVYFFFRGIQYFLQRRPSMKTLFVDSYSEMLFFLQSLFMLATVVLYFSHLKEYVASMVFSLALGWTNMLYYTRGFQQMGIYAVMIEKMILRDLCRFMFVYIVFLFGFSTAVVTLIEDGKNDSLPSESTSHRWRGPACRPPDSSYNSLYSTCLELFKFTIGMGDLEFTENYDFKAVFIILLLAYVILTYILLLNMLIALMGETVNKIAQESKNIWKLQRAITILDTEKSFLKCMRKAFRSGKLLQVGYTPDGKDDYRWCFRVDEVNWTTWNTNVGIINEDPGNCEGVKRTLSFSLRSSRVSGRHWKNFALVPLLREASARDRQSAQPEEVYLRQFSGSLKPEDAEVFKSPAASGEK

Each compound was assayed against Transient receptor potential cation channel subfamily V member 1 (Homo sapiens) (UniProt Q8NER1) (assay: HTS Assay for Compounds that Act as Agonists of the Vanilloid Receptor 1). Settings: TRPV1-expressing cells, Fluo-8 calcium influx, agonist mode; at 8.33 µM, stronger effect = higher value.
Summary of the method: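 Fluo-8 calcium influx in TRPV1-expressing cells, kinetic read (ex 480/em 520 nm). Compound added and read 3 min for agonist activity, followed by capsaicin at EC20 final and 2 min further read for enhancement.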
Also: 0% is about no effect.

SMILES	activation
O=C(N/N=C/c1ccccc1)c1ccc(N2CCOCC2)c([N+](=O)[O-])c1	inconclusive: 40.3%
CC(C)Cn1cc(C(=O)NCCCN2CCCC2=O)c2c3ccccc3n(C)c2c1=O	inactive: 4.43%
CC1=NN(C(=O)COc2ccccc2)C(O)(c2ccccc2)C1 (stereo not drawn)	inactive: -1.67%
COC(=O)c1[nH]c2ccc(Br)cc2c1NC(=O)C(C)N1CCN(C2CCCCC2)CC1 (stereo not drawn)	inactive: 9.08%
COc1ccc2[nH]cc(CCNS(=O)(=O)c3ccc(F)cc3)c2c1	inconclusive: 40.3%
C=CCn1c(SCC(=O)NCCCC)nc2scc(-c3ccco3)c2c1=O	inconclusive: 34.3%
CCC(=O)c1ccccc1OCCSc1nc(C)cc(=O)[nH]1	inconclusive: 59.9%
C/C(=N/Nc1ccnc2cc(Cl)ccc12)c1ccc(O)cc1	inconclusive: 67%
CC(C)CCNC(=O)[C@H](CSCc1ccccc1)N1Cc2ccccc2C1=O	inconclusive: 31.9%
CC(C)(C)NC(=O)C(c1cccs1)N(Cc1ccc(F)cc1)C(=O)c1csnn1 (stereo not drawn)	inactive: 27.6%
N=c1c2c(n(Cc3ccc([N+](=O)[O-])cc3)c3c1CCC3)CCCC2	inactive: 1.45%
COc1ccc(/C=N/NC(=O)c2ccc(CSc3nc(C)cc(C)n3)cc2)cc1O	inconclusive: 50.5%
O=C1c2ccccc2C(=O)N1OCc1ccc(Cl)cc1	inconclusive: 63.8%
COc1cc(NC(=O)c2ccc3c(SCC(=O)O)c4c(nc3c2)CCC4)cc(OC)c1OC	inactive: -1.49%
Cc1ccc(C(=O)OCC(=O)NCc2cccs2)cc1C	inconclusive: 36.1%
O=C1CCCCC1Sc1nnc(Cc2cccs2)n1CCc1ccccc1 (stereo not drawn)	inconclusive: 48%
O=C(CCCOc1ccc(Cl)cc1Cl)N/N=C\C1CCCCC1	inconclusive: 63.6%
O=C(CNC1CCCCC1)Nc1ccc(Cl)cc1	inconclusive: 55.6%
Cc1ccc(S(=O)(=O)CCC(=O)NCCc2ccccc2)cc1	inactive: 5.34%
Cc1nc(NC(=O)CN2CCOCC2)sc1-c1ccccc1	inconclusive: 35.4%

SMILES	activation
Cc1cccc(C(=O)OCC(=O)Nc2ccc(F)cc2)c1	inconclusive: 58.2%
O=C(c1cc(F)c(F)c(F)c1F)N1CCN(Cc2ccc3c(c2)OCO3)CC1	inconclusive: 30.7%
CCOc1ccc(-c2cc(CCCC(=O)NCCc3ccccc3)no2)cc1	inconclusive: 35.2%
Cc1cc(C)cc(OCCNC(=O)c2ccc(Br)cc2)c1	inconclusive: 35.4%
CCOc1ccc(NC(=O)N2CCN(c3nc4ccccc4s3)CC2)cc1	inconclusive: 55.5%
CC1(C(=O)N/N=C/c2ccc([N+](=O)[O-])o2)CC1(Br)Br (stereo not drawn)	inactive: 3.34%
N[C@H](CSCc1ccccc1)C(=O)Nc1ccc([N+](=O)[O-])cc1	inconclusive: 60.6%
COCCN(C(C)=O)c1nnc(-c2ccccn2)s1	inactive: -1.3%
COc1ccccc1N1CCN(C(=O)c2oc3c(c2C)C(=O)CC(C)(C)C3)CC1	inactive: 12.5%
Cc1cc(C(=O)NCc2ccc3c(c2)OCO3)ccc1[N+](=O)[O-]	inconclusive: 38.6%
CCCn1c(SCC(=O)N2c3ccccc3CC2C)n[nH]c1=O (stereo not drawn)	inactive: 20.8%
c1ccc2cc(CCCc3cc4ccccc4cn3)ncc2c1	inconclusive: 34.8%
CSCCNC(=O)c1ccc2nc(C3CCCCC3)oc2c1	active: 91.9%
COc1ccc(-c2nn(-c3ccccc3)cc2C(=O)NC2CCCCC2C)cc1 (stereo not drawn)	inconclusive: 49.3%
Cc1nc(NC(=O)c2ccccc2)sc1Cc1ccc2c(c1)OCO2	inconclusive: 36.6%
O=C(Nc1ccc(S(=O)(=O)N2CCOCC2)cc1)c1ccc(Cl)s1	inconclusive: 57.7%
CCOC(=O)C1(Cc2ccc(Cl)cc2)CCN(C(=O)c2cnc(C)cn2)CC1	inconclusive: 37.6%
O=C(CCCn1c(SCc2ccccc2F)nc2ccccc2c1=O)NCC1CCCO1 (stereo not drawn)	inconclusive: 40.3%
CC(C)CN(CC(C)C)S(=O)(=O)N1CCC(C(=O)N2CCc3ccccc3C2)CC1	inconclusive: 57.8%
Cc1ccc(C(=O)/C=C/C(=O)c2ccc(C)cc2)cc1	inconclusive: 35.4%

Retrieved by compound from the entries so far (four):
SMILES	activation
COc1ccccc1N1CCN(C(=O)c2oc3c(c2C)C(=O)CC(C)(C)C3)CC1	inactive: 12.5%
O=C(CCCn1c(SCc2ccccc2F)nc2ccccc2c1=O)NCC1CCCO1 (stereo not drawn)	inconclusive: 40.3%
CCOc1ccc(NC(=O)N2CCN(c3nc4ccccc4s3)CC2)cc1	inconclusive: 55.5%
Cc1nc(NC(=O)c2ccccc2)sc1Cc1ccc2c(c1)OCO2	inconclusive: 36.6%

(further entries)

SMILES	activation
O=C(Nc1ccc(F)cc1)Nc1ccc(N2CCCC2)c(S(=O)(=O)Nc2ccccc2Cl)c1	inconclusive: 45.5%
CC(C)[C@H](NC(=O)N1CCn2c1nc1ccccc12)C(=O)NC1CCCCC1	inconclusive: 30.4%
Cc1ccc2c(c1)N(CC(=O)NCc1ccco1)C(=O)C(C(C)C)O2 (stereo not drawn)	inconclusive: 41%
COc1ccc(NC2c3ccccc3C(=O)N2Cc2ccc3c(c2)OCO3)cc1 (stereo not drawn)	active: 102%
O=C(O)c1ccc(CSc2nnc(-c3ccccc3Cl)n2-c2ccccc2)cc1	inactive: 0.656%
O=C(/C=C/c1ccc(F)cc1)N1CCCc2ccccc21	inconclusive: 53.1%
CC(C)C[C@H](CO)Nc1nc(Nc2cccc(Cl)c2)c2ncn(C(C)C)c2n1	inconclusive: 78.8%
COc1ccc(C)cc1NC(=O)CN1CCN(c2ccccc2F)CC1	inactive: 5.36%
Cc1cc(=O)[nH]c(SCCOc2ccc3c(c2)CCC3)n1	inconclusive: 49.6%
COc1ccc(NC(=O)c2ccc3c(c2)N(C)CCS3)cc1	active: 96.6%
CC(=O)CCc1oc2ccc(NC(C)=O)cc2c1-c1ccc(C)o1	inconclusive: 31.6%
O=C(CN1C(=O)NC2(CCCCCC2)C1=O)Nc1cccc(F)c1	inconclusive: 42.3%
N#Cc1cc2cc3c(cc2nc1SCC(=O)N1CCOCC1)OCO3	inactive: -3.31%
COc1ccc(OCc2cccc(C(=O)NN)c2)cc1	inactive: 8.64%
Fc1ccc(C(Nc2ccccn2)c2c[nH]c3ccccc23)cc1 (stereo not drawn)	inactive: -2.17%
Cc1ccc(SCc2nc3ccccc3[nH]2)cc1	inconclusive: 65.1%
Cc1ccc(Cl)cc1N1CCN(CC(O)COC(C)C)CC1 (stereo not drawn)	inactive: 2.31%
O=C(Nc1cccc2ccccc12)c1ccc([N+](=O)[O-])cc1	inconclusive: 61.9%
